Laboratory results taken from the supplement of paper PMC3334620.
Whole data set: some 33,000 sequences, median “E-score (-0.5 to 0.5)” near -0.016, cut for the highest 2% near 0.3. This is one part of the list.

Biological target: T1, Yer184c (UniProt P39961)
T1 sequence: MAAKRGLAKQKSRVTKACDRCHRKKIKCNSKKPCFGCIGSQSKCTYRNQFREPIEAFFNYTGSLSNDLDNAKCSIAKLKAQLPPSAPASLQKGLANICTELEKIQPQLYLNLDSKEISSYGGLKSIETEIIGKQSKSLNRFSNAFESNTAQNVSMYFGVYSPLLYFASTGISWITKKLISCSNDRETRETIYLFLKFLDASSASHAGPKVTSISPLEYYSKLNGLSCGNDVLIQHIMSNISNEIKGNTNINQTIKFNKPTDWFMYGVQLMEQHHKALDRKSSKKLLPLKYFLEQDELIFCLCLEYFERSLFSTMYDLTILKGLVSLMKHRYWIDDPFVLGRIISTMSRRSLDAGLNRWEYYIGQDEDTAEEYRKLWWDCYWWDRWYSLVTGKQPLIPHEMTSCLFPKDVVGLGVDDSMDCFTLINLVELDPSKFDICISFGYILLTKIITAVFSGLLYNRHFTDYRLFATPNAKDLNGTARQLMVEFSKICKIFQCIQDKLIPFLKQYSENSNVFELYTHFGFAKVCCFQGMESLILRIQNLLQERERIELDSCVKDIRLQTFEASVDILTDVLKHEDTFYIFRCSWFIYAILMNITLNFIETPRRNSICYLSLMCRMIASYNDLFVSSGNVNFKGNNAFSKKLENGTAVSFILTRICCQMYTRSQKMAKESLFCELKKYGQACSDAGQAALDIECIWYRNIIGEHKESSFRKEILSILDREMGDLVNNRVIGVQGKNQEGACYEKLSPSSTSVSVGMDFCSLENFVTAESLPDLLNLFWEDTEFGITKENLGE
Experiment: PBM E-score (8-mer binding enrichment) (E-score (-0.5 to 0.5)); higher = stronger / more preferred TF binding
Conditions: protein concentration: 100 nM; construct: GST-full length
Description: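 Universal 'all 10-mer' protein binding microarrays (Agilent AMADID 015681) probed with GST-tagged S. cerevisiae TFs (full-length or DBD) made by in vitro transcription/translation (PURExpress), about 100-200 nM. Bound TF was detected with fluorescent anti-GST. Each ungapped 8-mer (which stands for itself and its reverse complement) is scored by the PBM enrichment score (E-score), a modified Wilcoxon-Mann-Whitney statistic from -0.5 to +0.5, computed with the Universal PBM Analysis Suite. Scale: above 0.35 generally sequence-specific binding.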

Row | Sequence | PBM E-score
1 | ACTTATGC | -0.0144
2 | GAGATATC | 0.0236
3 | CGCCGTAG | 0.157
4 | CAAAACTC | 0.0921
5 | GGCGAACC | -0.0337
6 | AGAGACGG | 0.0246
7 | AGGTGTGA | -0.19
8 | ATAGCAAC | -0.00353
9 | AAGAGGGA | -0.333
10 | CGACGCAA | -0.028
11 | TCGCCGCA | 0.0686
12 | ACTAGTGG | -0.212
13 | AGTCTGTC | -0.084
14 | TAGGCGAA | -0.115
15 | AGGACCTA | -0.031
16 | CAGGGCGG | -0.115
17 | AACAACGA | 0.112
18 | AGGTCACA | -0.273
19 | GCGGTCAC | 0.00978
20 | AATGACAA | 0.0452
21 | AACTTCTA | 0.0232
22 | AGCGTCGG | 0.173

Not a retest: entries from further up.
Row | Sequence | PBM E-score
11 | TCGCCGCA | 0.0686
12 | ACTAGTGG | -0.212
13 | AGTCTGTC | -0.084
14 | TAGGCGAA | -0.115

Further results follow.

Row | Sequence | PBM E-score
23 | TAATACCA | 0.113
24 | ACAGAGAG | -0.289
25 | CCAGTTTA | -0.102
26 | CGCAGGCG | -0.106
27 | ACGAGACC | -0.0799
28 | AGCGATAG | -0.285
29 | CCATGTTA | -0.0822
30 | CCTCGTAA | 0.0195
31 | CTTTGAAA | 0.149
32 | TCAGTCCA | -0.332
33 | GCTGTCCA | 0.0967
34 | AACCAATT | 0.107
35 | AAGCTAGT | -0.0205
36 | CGTCAAAC | -0.0185
37 | AACCGCTA | -0.0619
38 | ATCAATAA | 0.237
39 | CGCTGCGC | -0.168
40 | AAGTCGAA | -0.165
41 | ATACGTTG | -0.0986
42 | CGCATCAC | 0.00871
43 | ATCTCGCC | -0.0689
44 | TCCGGCCA | 0.218

A few values from the results shown:
ACTAGTGG | PBM E-score: -0.212
AGAGACGG | PBM E-score: 0.0246

(further entries)

Row | Sequence | PBM E-score
45 | TACTTATA | 0.0467
46 | AAAGATCT | -0.144
47 | CATGTCGA | -0.101
48 | TAATTTGA | 0.0115
49 | AAACCTTT | 0.0978
50 | CCAGTTCC | -0.0476
51 | TATAGCCA | 0.0153
52 | CGGCGGCA | 0.143
53 | CGGCAGTC | 0.237
54 | ATCTGGAA | 0.118
55 | CAAGGGGG | -0.373
56 | CCGTACAC | 0.0112
57 | GCCACGCA | -0.191
58 | AAGTGTGA | -0.098
59 | CGTCCTAC | -0.283
60 | TCCTTACA | -0.0191
61 | ATAGTAAT | 0.227
62 | AGACCAGG | -0.194
63 | AGTTACAA | 0.143
64 | AACTAGAT | 0.0952
65 | GACGGCGC | 0.0629
66 | AGCGCAAA | 0.00353

Row | Sequence | PBM E-score
67 | GAACATCC | 0.259
68 | CCCATACC | -0.199
69 | CACGCGTA | -0.0809
70 | CTGTACCA | -0.0943
71 | AATGCTGC | -0.108
72 | ACGAAGCC | 0.0317
73 | GACCACGA | -0.0671
74 | ATGACGTG | -0.171
75 | TCTATGCA | 0.0433
76 | ACACTAAG | -0.0544
77 | GTGCTAGA | -0.216
78 | GGAAAAAC | 0.124
79 | GGCATTCA | -0.00011
80 | GCAGTGAC | -0.134
81 | ATTAGGCA | -0.041
82 | CGAGACGA | -0.0371
83 | GGCGCCCC | -0.0361
84 | AGGAATAT | 0.157
85 | AAACCGGC | 0.313
86 | GCTTGCAC | -0.0414
